Source: paper doi:10.1101/2024.09.30.615192
Results are given in words; binding and its absence hold for the method and conditions named. In cells and extracts the contact can be indirect. A yes stands for co-enrichment or nearness to the bait. Other partners may have been found.

Sequences of proteins named here, by UniProt entry; tags and fusion partners are left off.
UniProt Q9NZJ7: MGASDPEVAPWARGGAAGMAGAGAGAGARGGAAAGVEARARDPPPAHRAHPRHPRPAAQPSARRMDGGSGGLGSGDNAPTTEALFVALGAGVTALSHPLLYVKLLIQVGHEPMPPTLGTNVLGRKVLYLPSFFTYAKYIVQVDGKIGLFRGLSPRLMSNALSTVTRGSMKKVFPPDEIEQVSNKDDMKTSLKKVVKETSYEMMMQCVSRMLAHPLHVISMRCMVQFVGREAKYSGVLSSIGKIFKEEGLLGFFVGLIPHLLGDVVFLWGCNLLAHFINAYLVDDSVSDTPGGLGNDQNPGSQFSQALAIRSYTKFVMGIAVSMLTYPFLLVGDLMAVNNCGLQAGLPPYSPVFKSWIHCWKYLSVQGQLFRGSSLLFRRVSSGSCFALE
UniProt Q9Y297: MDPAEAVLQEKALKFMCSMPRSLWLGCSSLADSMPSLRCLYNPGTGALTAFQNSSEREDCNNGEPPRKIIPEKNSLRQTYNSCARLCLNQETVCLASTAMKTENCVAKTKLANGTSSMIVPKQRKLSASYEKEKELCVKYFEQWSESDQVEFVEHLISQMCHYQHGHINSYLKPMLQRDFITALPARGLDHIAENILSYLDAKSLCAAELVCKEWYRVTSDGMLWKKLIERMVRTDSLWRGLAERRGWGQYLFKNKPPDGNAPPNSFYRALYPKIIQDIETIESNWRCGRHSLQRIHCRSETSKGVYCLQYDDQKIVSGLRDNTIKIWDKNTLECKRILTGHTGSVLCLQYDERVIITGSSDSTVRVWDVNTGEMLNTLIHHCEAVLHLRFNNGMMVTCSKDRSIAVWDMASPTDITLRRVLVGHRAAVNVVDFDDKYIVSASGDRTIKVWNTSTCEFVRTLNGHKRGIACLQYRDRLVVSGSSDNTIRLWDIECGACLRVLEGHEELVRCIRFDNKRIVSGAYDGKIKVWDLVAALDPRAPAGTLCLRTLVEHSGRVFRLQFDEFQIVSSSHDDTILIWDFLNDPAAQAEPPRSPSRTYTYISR
UniProt Q9UKB1: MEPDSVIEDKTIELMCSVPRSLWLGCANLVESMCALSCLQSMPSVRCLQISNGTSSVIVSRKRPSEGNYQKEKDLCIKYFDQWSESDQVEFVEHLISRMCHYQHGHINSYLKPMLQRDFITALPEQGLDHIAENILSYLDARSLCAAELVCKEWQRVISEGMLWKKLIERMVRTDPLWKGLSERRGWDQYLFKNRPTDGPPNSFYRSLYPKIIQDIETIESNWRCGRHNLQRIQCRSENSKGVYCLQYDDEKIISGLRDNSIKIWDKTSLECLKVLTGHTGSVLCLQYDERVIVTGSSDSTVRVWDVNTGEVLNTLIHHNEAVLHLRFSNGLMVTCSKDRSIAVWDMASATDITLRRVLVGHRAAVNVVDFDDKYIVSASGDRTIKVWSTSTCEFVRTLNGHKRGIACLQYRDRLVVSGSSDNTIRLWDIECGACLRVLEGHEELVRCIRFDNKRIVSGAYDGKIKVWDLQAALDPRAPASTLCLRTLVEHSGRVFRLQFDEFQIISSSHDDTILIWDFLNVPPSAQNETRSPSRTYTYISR
UniProt Q70CQ3: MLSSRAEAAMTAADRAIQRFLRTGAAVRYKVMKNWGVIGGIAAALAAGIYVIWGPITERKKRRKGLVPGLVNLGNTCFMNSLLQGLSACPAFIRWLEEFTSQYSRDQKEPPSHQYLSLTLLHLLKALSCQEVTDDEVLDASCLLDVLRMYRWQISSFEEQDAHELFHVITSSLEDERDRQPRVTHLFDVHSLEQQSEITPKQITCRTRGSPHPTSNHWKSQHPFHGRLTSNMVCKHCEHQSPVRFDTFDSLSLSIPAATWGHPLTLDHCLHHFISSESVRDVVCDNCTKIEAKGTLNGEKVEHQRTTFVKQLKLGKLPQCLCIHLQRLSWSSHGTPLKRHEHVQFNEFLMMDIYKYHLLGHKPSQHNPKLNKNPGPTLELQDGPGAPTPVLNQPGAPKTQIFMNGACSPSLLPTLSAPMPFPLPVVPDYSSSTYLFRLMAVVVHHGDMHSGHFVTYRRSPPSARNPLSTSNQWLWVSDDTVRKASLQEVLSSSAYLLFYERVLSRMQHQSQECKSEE
UniProt Q969V5: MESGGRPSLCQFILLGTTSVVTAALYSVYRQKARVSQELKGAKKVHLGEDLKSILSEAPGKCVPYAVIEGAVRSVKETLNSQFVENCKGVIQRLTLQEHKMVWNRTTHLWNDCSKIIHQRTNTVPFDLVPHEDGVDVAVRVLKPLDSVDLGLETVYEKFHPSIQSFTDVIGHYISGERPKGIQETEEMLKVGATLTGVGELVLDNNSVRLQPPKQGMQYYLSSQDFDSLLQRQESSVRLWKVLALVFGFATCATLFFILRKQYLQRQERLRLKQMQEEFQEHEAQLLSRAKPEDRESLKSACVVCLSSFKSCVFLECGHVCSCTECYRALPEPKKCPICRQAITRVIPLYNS

Experiments:
Assay in all cases: affinity purification with mass spectrometry
[1] = target: T1, SLC16A6 (human) (UniProt O15403)
T1 sequence: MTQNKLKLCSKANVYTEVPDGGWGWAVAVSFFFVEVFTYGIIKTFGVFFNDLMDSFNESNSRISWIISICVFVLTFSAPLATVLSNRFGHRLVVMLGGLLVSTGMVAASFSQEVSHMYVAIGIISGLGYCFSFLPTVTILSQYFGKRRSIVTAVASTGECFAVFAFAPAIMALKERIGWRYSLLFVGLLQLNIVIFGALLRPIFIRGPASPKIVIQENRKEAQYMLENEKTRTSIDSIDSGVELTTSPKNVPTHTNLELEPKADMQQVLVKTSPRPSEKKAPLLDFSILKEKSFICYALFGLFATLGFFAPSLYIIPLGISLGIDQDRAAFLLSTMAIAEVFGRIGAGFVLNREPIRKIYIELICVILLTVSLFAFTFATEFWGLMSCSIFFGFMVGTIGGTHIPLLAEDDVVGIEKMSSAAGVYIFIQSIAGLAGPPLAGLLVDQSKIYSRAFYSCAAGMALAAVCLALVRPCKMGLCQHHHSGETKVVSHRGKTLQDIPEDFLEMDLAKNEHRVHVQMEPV

[2] = target: T2, SLC16A6 T245E (human) (UniProt O15403)
T2 sequence: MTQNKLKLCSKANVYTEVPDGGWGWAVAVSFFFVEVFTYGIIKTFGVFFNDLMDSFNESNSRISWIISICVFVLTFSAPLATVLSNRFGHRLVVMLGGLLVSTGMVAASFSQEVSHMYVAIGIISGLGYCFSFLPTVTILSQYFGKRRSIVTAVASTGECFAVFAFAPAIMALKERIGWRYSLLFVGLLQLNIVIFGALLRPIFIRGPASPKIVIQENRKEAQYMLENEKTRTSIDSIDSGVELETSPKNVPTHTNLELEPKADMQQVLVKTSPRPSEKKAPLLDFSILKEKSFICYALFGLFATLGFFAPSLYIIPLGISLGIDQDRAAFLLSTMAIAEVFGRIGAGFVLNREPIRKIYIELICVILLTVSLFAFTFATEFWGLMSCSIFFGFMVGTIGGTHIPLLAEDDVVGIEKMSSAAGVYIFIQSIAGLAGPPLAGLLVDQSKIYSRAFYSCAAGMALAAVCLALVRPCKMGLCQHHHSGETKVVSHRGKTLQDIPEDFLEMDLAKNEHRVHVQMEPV

[3] = target: MTCH1 (human) (UniProt Q9NZJ7)
[4] = target: T3, MTCH2 (human) (UniProt Q9Y6C9)
T3 sequence: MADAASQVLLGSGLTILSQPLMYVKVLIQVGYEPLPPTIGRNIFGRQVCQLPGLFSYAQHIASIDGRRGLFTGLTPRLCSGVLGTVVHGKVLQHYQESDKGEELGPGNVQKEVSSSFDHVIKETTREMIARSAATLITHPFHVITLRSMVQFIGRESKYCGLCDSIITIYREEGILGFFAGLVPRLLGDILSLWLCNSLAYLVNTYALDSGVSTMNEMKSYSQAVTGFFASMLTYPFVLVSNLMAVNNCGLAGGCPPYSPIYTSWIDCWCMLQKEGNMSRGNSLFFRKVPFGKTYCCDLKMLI

[5] = target: T4, SLC39A8 (human) (UniProt Q9C0K1)
T4 sequence: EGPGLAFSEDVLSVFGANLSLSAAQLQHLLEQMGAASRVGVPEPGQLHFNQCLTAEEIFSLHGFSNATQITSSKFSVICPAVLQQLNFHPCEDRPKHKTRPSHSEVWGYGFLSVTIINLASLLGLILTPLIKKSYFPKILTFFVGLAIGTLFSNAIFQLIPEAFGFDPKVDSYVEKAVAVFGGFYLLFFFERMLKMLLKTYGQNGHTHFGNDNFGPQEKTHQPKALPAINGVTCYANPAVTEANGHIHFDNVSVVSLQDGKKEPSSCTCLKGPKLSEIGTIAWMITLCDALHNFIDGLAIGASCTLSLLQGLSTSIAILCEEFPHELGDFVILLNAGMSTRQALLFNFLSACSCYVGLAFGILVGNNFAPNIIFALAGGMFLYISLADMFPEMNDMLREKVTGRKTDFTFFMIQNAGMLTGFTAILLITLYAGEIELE

[6] = target: SLC43A2 (human) (UniProt Q8N370)

BTRC (from UniProt Q9Y297 1-605)
binding [1]: binds
binding [2]: binds

FBXW11 (from UniProt Q9UKB1 1-542)
binding [1]: binds
binding [2]: binds

Ubiquitin carboxyl-terminal hydrolase 30 (from UniProt Q70CQ3 1-517)
binding [3]: binds
binding [4]: binds

mitochondrial ubiquitin ligase activator of NFKB1 (from UniProt Q969V5 1-352)
binding [3]: binds
binding [4]: binds

B1: NFXL1 (protein, UniProt Q6ZNB6 1-911)
chain: MEASWRQVAGGRGRSRGRATAAPSGNGVHLRGAGGGREKGSVGAVPSGTSPGGVATTAAAGSRHSPAGSQALQTTAASELMSQKKFEEIKKANQAAARKLVEEQFSSSSEEGDEDFEGKQGKILANTFITYTTQTDGDTRELERTKQYVNEAFQAGAMTCLICIASVKRNQAVWSCSGCFCIFHMPCIQKWAKDSQFLVSSVTDDDFGKKDCPWPCPKCRFEYKRSETPSRYYCYCGKVEDPPLDPWLVPHSCGQVCEREFKPPCGHKCLLLCHPGPCPPCPKMVTTTCYCKKAKPIPRRCSAKEWSCQLPCGQKLLCGQHKCENPCHAGSCQPCPRVSRQKCVCGKKVAERSCASPLWHCDQVCGKTLPCGNHTCEQVCHVGACGECPRSGKRFCPCQKSKFSLPCTEDVPTCGDSCDKVLECGIHRCSQRCHRGPCETCRQEVEKHCRCGKHTKRMPCHKPYLCETKCVKMRDCQKHQCRRKCCPGNCPPCDQNCGRTLGCRNHKCPSVCHRGSCYPCPETVDVKCNCGNTKVTVPCGRERTTRPPKCKEQCSRPPTCHHTSQEKHRCHFGSCPPCHQPCQKVLEKCGHLCPAPCHDQALIKQTGRHQPTGPWEQPSEPAFIQTALPCPPCQVPIPMECLGKHEVSPLPCHAVGPYSCKRVCGRILDCQNHTCMKECHKVTKTDGCTGKNKAGPECLHCEEGCSKSRPLGCLHPCILRCHPGECPPCVQMLRIKCHCKITSLYVECRKITTADVNEKNLLSCCKNQCPKELPCGHRCKEMCHPGECPFNCNQKVKLRCPCKRIKKELQCNKVRENQVSIECDTTCKEMKRKASEIKEAEAKAALEEEKRRQQAELEAFENRLKGRRKKNRKRDEVAVELSLWQKHKYYLISVCGVVVVVFAWYITHDVN
binding [5]: binds

B2: LIN7C (protein, UniProt Q9NUP9 1-197)
chain: MAALGEPVRLERDICRAIELLEKLQRSGEVPPQKLQALQRVLQSEFCNAVREVYEHVYETVDISSSPEVRANATAKATVAAFAASEGHSHPRVVELPKTEEGLGFNIMGGKEQNSPIYISRIIPGGIADRHGGLKRGDQLLSVNGVSVEGEHHEKAVELLKAAQGKVKLVVRYTPKVLEEMESRFEKMRSAKRRQQT
binding [6]: binds

B3: GOLM1 (protein, UniProt Q8NBJ4 1-401)
chain: MMGLGNGRRSMKSPPLVLAALVACIIVLGFNYWIASSRSVDLQTRIMELEGRVRRAAAERGAVELKKNEFQGELEKQREQLDKIQSSHNFQLESVNKLYQDEKAVLVNNITTGERLIRVLQDQLKTLQRNYGRLQQDVLQFQKNQTNLERKFSYDLSQCINQMKEVKEQCEERIEEVTKKGNEAVASRDLSENNDQRQQLQALSEPQPRLQAAGLPHTEVPQGKGNVLGNSKSQTPAPSSEVVLDSKRQVEKEETNEIQVVNEEPQRDRLPQEPGREQVVEDRPVGGRGFGGAGELGQTPQVQAALSVSQENPEMEGPERDQLVIPDGQEEEQEAAGEGRNQQKLRGEDDYNMDENEAESETDKQAALAGNDRNIDVFNVEDQKRDTINLLDQREKRNHTL
binding [5]: binds

B4: sorting nexin 25 (protein, UniProt Q9H3E2 1-840)
chain: MDKALKEVFDYSYRDYILSWYGNLSRDEGQLYHLLLEDFWEIARQLHHRLSHVDVVKVVCNDVVRTLLTHFCDLKAANARHEEQPRPFVLHACLRNSDDEVRFLQTCSRVLVFCLLPSKDVQSLSLRIMLAEILTTKVLKPVVELLSNPDYINQMLLAQLAYREQMNEHHKRAYTYAPSYEDFIKLINSNSDVEFLKQLRYQIVVEIIQATTISSFPQLKRHKGKETAAMKADLLRARNMKRYINQLTVAKKQCEKRIRILGGPAYDQQEDGALDEGEGPQSQKILQFEDILANTFYREHFGMYMERMDKRALISFWESVEHLKNANKNEIPQLVGEIYQNFFVESKEISVEKSLYKEIQQCLVGNKGIEVFYKIQEDVYETLKDRYYPSFIVSDLYEKLLIKEEEKHASQMISNKDEMGPRDEAGEEAVDDGTNQINEQASFAVNKLRELNEKLEYKRQALNSIQNAPKPDKKIVSKLKDEIILIEKERTDLQLHMARTDWWCENLGMWKASITSGEVTEENGEQLPCYFVMVSLQEVGGVETKNWTVPRRLSEFQNLHRKLSECVPSLKKVQLPSLSKLPFKSIDQKFMEKSKNQLNKFLQNLLSDERLCQSEALYAFLSPSPDYLKVIDVQGKKNSFSLSSFLERLPRDFFSHQEEETEEDSDLSDYGDDVDGRKDALAEPCFMLIGEIFELRGMFKWVRRTLIALVQVTFGRTINKQIRDTVSWIFSEQMLVYYINIFRDAFWPNGKLAPPTTIRSKEQSQETKQRAQQKLLENIPDMLQSLVGQQNARHGIIKIFNALQETRANKHLLYALMELLLIELCPELRVHLDQLKAGQV
binding [5]: binds
